Results on 5 compounds are retold here after PubChem BioAssay AID2003 (Broad Institute, 2009).

The other results are listed elsewhere or left out. Entries with a potency or affinity are not part of this list. Where no call is shown, the source marks the result inconclusive.

The assay in a line: PubChem AID 2003. Particulars: H4 cells, SNCA 5'UTR luciferase reporter, luminescence; at 12 µM (top of the series) unless noted. In general terms: A reporter such as luciferase makes a cellular process visible.
Compound `Cc1nn(CC(C)C)c(Cl)c1C(=O)NC1CCC(C)CC1` (stereo not given) came in with an activation of 90.8%.
`CC(C)(C)c1ccc(OC(=O)N2CCCCC2)cc1`: the activation was 93.9%.
To `CN1C(=O)/C(=C/c2ccc(N3CCCCCC3)o2)C(=O)NC1=S` belongs 78.3%.
Regarding `COc1ccc2nc(NC3=NCCN3)sc2c1`, the activation was found to be 106%.
To `N=C1c2ccccc2CN1CC(=O)c1ccccc1` belongs 140% [at 6 µM].
